From patent US20070259094A1, “N-acetylglucosamine as a food and beverage additive” (priority 2002, published 2007)

Tests used:
[1] = Taste and smell of aqueous solution; details: for smell of solution / taste of solution: 2 grams in 180 mL of water; for Taste: table Glucosamine Characteristics
[2] = N-Acetylglucosamine Taste Test (taste panel, 100 millimeter scale); details: average, 10 subjects (A6: three)

| Compound | smell of solution [1] | taste of solution [1] | Taste [1] | Like the Taste (1 to 100) [2] | Sweetness Score (1 to 100) [2] |
| --- | --- | --- | --- | --- | --- |
| Cl.N[C@H]1C(O)O[C@H](CO)[C@@H](O)[C@@H]1O (stereo partly shown) [Glucosamine hydrochloride] | slightly fishy | unpalatable described as salty, sour to bitter | Salty, sour to very bitter |  |  |
| CC(=O)N[C@H]1C(O)O[C@H](CO)[C@@H](O)[C@@H]1O (stereo partly shown) [N-Acetylglucosamine, N-acetylglucosamine] | no smell | slightly sweetish taste | Slightly sweet | 52.8 | 35.6 |
| N[C@H]1C(O)O[C@H](CO)[C@@H](O)[C@@H]1O.O=S(=O)(O)O (stereo partly shown) [Glucosamine Sulphate] | slightly fishy | unpalatable described as salty, sour to bitter | Fishy and unpalatable | 3 | 8.7 |
